# Primary screen of a compound library

Protein sequences, listed by entry. Tags and fused reporters are not part of them. Residues count along the entry.
UniProt P9WFT3, whole entry: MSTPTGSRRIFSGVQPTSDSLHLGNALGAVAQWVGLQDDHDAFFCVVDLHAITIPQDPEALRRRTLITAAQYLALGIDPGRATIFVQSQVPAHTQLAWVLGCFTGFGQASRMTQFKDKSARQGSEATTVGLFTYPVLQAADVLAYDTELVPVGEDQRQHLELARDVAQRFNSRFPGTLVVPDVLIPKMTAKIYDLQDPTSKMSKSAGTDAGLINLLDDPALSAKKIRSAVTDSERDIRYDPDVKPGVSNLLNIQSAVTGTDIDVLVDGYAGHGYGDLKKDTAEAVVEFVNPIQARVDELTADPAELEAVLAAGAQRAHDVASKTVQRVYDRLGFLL
UniProt I6X8D2, whole entry: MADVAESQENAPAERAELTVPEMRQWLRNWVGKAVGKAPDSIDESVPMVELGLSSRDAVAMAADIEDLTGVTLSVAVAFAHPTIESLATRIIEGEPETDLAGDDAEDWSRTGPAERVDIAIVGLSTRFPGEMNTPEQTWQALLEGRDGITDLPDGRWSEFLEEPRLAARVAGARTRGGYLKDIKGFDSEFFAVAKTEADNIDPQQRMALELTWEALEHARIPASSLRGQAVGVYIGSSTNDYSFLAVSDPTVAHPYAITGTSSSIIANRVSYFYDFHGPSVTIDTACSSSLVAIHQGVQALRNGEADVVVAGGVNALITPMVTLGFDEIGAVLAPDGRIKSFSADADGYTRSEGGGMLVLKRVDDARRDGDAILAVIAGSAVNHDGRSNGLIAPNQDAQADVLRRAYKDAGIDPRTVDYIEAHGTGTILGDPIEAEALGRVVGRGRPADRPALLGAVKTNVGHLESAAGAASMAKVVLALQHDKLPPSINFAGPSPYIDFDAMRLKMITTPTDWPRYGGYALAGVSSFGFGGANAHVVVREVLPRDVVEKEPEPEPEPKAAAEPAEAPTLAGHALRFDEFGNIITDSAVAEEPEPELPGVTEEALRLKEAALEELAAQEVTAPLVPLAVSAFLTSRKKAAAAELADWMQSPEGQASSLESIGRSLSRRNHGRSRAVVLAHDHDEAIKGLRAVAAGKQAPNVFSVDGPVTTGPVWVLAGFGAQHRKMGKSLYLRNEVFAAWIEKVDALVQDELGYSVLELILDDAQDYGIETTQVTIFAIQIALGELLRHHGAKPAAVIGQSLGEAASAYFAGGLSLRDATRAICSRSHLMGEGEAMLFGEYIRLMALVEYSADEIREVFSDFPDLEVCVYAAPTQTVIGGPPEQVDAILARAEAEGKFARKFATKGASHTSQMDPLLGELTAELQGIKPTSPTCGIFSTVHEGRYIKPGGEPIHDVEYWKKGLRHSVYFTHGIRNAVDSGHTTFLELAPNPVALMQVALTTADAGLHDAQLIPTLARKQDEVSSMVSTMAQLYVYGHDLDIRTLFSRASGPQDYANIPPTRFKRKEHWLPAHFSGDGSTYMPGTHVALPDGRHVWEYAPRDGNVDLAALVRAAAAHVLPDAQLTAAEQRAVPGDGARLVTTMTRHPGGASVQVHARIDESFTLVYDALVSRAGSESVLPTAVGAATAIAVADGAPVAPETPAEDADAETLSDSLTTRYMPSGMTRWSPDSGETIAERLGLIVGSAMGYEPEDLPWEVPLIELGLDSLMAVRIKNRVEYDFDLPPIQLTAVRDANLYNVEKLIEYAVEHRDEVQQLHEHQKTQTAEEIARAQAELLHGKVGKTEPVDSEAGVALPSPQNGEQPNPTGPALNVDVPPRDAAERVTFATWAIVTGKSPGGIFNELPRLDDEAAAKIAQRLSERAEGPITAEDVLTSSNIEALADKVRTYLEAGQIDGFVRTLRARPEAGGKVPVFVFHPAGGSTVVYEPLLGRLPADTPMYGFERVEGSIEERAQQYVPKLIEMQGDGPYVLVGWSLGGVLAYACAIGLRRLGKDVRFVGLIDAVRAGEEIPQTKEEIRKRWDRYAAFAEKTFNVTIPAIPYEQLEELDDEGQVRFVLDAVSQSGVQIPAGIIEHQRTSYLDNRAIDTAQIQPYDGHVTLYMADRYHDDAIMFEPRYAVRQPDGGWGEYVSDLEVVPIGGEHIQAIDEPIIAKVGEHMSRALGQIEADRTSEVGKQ
UniProt A4I591, 1-473: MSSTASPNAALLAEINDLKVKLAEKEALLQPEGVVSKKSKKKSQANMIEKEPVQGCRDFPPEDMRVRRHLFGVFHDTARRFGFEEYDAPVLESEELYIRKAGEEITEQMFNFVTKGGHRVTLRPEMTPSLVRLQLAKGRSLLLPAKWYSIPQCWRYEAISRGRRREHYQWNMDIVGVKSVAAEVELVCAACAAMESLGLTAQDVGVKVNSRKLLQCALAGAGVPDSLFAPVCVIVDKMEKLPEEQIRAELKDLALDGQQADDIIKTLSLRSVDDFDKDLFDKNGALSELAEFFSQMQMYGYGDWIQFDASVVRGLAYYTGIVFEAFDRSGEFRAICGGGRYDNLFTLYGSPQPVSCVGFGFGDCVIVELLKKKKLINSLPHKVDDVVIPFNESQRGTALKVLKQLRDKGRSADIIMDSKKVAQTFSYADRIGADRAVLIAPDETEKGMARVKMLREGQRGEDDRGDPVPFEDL
UniProt Q8IDJ8, 1-583: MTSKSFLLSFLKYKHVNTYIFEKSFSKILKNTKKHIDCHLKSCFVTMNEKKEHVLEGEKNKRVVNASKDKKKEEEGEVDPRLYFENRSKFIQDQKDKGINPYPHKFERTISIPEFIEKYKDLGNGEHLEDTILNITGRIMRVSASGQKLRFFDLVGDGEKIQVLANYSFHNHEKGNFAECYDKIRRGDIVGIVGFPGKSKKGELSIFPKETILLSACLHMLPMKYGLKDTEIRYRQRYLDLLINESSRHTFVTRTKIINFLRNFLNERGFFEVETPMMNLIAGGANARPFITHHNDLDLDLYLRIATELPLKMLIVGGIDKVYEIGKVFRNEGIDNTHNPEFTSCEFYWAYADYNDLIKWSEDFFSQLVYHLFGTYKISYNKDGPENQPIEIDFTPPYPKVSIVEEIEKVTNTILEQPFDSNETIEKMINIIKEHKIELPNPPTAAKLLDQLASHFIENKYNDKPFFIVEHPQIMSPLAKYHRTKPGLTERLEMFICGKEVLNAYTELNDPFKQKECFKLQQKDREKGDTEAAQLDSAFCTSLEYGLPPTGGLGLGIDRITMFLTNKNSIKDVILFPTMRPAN

Measurements from “University of Dundee, Small-Polar-MMV Screening Library” (2021), ChEMBL document CHEMBL3988442.

MtTrpRS: 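Tryptophan-tRNA ligase, Mycobacterium tuberculosis (UniProt P9WFT3). Enzyme assay of tryptophanyl-tRNA synthetase; the read-out is not stated. Tested at 10 µM. Higher most likely means stronger inhibition; the record gives no direction and few retests gave an IC50. Of about 65,000 compounds tested this way, about 64 (0.098%) reached 50% or more in at least one test.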
Pks13 thioesterase: 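Polyketide synthase Pks13, Mycobacterium tuberculosis (UniProt I6X8D2). Enzyme assay of the thioesterase domain of polyketide synthase 13; the read-out is not stated. Compounds at 30 µM. Higher reads as stronger inhibition (inferred from which compounds were picked for retests). About 67,000 compounds were tested under these conditions; 0.46% (about 300) showed 50% or more at least once.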
LiHisRS: 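Histidine-tRNA ligase, Leishmania infantum (UniProt A4I591). Enzyme assay of histidyl-tRNA synthetase; the read-out is not stated. Compounds at 30 µM. Higher reads as stronger inhibition (inferred: compounds with an IC50 in retests scored well above the rest). The assay is labelled LdHisRS but filed under L. infantum. Size under these conditions: about 69,000 compounds, about 410 of them at 50% or above in at least one test.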
PfKRS1: 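Lysine-tRNA ligase, Plasmodium falciparum 3D7 (UniProt Q8IDJ8). Enzyme assay of the cytosolic lysyl-tRNA synthetase in 384-well plates, read by luminescence. Concentration: 30 µM. Higher reads as stronger inhibition, judged from the few compounds that gave an IC50. Size under these conditions: about 69,000 compounds, about 49 of them at 50% or above in at least one test.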

Results are given as percent effect. The controls that fix the scale are not given in the record; negative values are as filed. Compounds were drawn at random from those tested, without regard to their results.

For COc1ccc(NC(C)=O)cc1S(=O)(=O)Nc1ccon1 the result was MtTrpRS: -1.375%; Pks13 thioesterase: -12.98%; LiHisRS: 16.85%; PfKRS1: 7.6%. Result for COCCN(C)C[C@@H]1CN(C(=O)c2ccoc2)C[C@@H]1CO was MtTrpRS: -2.399%; Pks13 thioesterase: -28.05%; LiHisRS: 21.15%; PfKRS1: 2.151%. Result for CCS(=O)(=O)NC(C(=O)NC)c1ccc(F)c(F)c1 (stereo not shown) was MtTrpRS: 3.752%; Pks13 thioesterase: -8.268%; LiHisRS: 21.15%; PfKRS1: 7.31%. Cn1cnc(S(=O)(=O)N2C[C@H](OCC3CC3)[C@H]3OCCC[C@H]32)c1 read MtTrpRS: -5.091%; Pks13 thioesterase: -9.353%; LiHisRS: 3.03%; PfKRS1: 0.9629%. CCC(=O)NC1CCCN(C(=O)Nc2cc(-c3ccccc3)on2)C1 (stereo not shown) gave MtTrpRS: -2.642%; Pks13 thioesterase: -28.68%; LiHisRS: 12.7%; PfKRS1: 3.119%. O=C1CCOCCN1Cc1ccc(Cl)c(F)c1 read MtTrpRS: -3.039%; Pks13 thioesterase: -32.68%; LiHisRS: 10.83%; PfKRS1: 1.49%. CN(C)Cc1nnc(C2CCN(c3nccc(N)n3)CC2)n1C1CC1 gave MtTrpRS: -4.55%; Pks13 thioesterase: -15.8%; LiHisRS: 24.04%; PfKRS1: 5.03%.

Result for COCC(=O)NC1(c2cccc(C(F)(F)F)c2)CCC1 was MtTrpRS: 2.451%; Pks13 thioesterase: -28.65%; LiHisRS: 15.79%; PfKRS1: 3.152%. CCNc1ccnc(NC2CCN(C(=O)c3ccc(C)cc3)CC2)n1 read MtTrpRS: -0.9091%; Pks13 thioesterase: -16.14%; LiHisRS: 19.19%; PfKRS1: 4.742%. Result for CCOC1COC2(CCN(Cc3cccc(F)c3)CC2)C1 (stereo not shown) was MtTrpRS: -0.9924%; Pks13 thioesterase: -9.472%; LiHisRS: 14.63%; PfKRS1: 8.77%. Result for CC(C)N(CC(=O)Nc1cccc(C#N)c1)C1CC1 was MtTrpRS: -0.7988%; Pks13 thioesterase: 12.06%; LiHisRS: 13.33%; PfKRS1: 2.913%. Result for Cc1ccc(C)c(SCC(=O)Nc2cccc(C(=O)N(C)C)n2)c1 was MtTrpRS: 13.25%; Pks13 thioesterase: 18.5%; LiHisRS: 3.947%; PfKRS1: 6.208%. CN(C)C(=O)Cc1ccc(NC(=O)NC2CC2)cc1 read MtTrpRS: -4.946%; Pks13 thioesterase: 13.98%; LiHisRS: 13.21%; PfKRS1: 3.066%. With CCc1ccc(C2CCCN2C(=O)Cc2ccc(NC(C)=O)cc2)o1 (stereo not shown) the screen gave MtTrpRS: 4.009%; LiHisRS: 16.13%; PfKRS1: 0.07013%.

With CCc1cnc(N)nc1NCc1ccc(OC)c(OC)c1 the screen gave MtTrpRS: -7.78%; Pks13 thioesterase: -36.22%; LiHisRS: -13.68%; PfKRS1: 2.77%. With Cn1ccnc1CN1C[C@@H](F)[C@@H](OCc2nc3cnccc3[nH]2)C1 the screen gave MtTrpRS: 2.822%; Pks13 thioesterase: 37.12%; LiHisRS: -8.108%; PfKRS1: 0.7183%. Result for COCCNC(=O)CCn1ncc2c(Cl)cccc21 was MtTrpRS: 5.699%; Pks13 thioesterase: -20.08%; LiHisRS: 12.07%; PfKRS1: -5.573%. For CCC(=O)Nc1cccc(OCC(=O)N2C[C@H]3CC[C@H]2C3)c1 the result was MtTrpRS: 0.9181%; Pks13 thioesterase: 7.855%; LiHisRS: 22.89%; PfKRS1: 0.4992%. Result for CCCNC(=O)CCNC(=O)c1sc2ccc(F)cc2c1C was MtTrpRS: -1.795%; Pks13 thioesterase: -20.02%; LiHisRS: 8.929%; PfKRS1: -0.189%.

The last 2 entries again:

CCC(=O)Nc1cccc(OCC(=O)N2C[C@H]3CC[C@H]2C3)c1 gave MtTrpRS: 0.9181%; Pks13 thioesterase: 7.855%; LiHisRS: 22.89%; PfKRS1: 0.4992%.
CCCNC(=O)CCNC(=O)c1sc2ccc(F)cc2c1C gave MtTrpRS: -1.795%; Pks13 thioesterase: -20.02%; LiHisRS: 8.929%; PfKRS1: -0.189%.